Laboratory results from PMC6744478.
No constants are given. Whether binding was seen depends on the method and setting. Some binding calls cover weakened binding; strength is not graded here.

By UniProt entry, the sequences of proteins in these tests, tags left out. Residues count along the entry.
UniProt O14775, residues 43-395: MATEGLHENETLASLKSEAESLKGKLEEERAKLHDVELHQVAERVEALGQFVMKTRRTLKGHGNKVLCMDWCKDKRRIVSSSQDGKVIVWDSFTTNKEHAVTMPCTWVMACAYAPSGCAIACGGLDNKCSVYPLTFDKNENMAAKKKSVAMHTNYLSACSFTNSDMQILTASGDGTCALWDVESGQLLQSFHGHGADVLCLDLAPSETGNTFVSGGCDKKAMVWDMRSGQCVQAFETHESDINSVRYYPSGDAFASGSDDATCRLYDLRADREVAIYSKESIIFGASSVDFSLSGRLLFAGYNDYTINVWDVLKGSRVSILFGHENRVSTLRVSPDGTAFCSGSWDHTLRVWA

B1: RGS6 (protein, UniProt P49758 1-472)
chain: MAQGSGDQRAVGVADPEESSPNMIVYCKIEDIITKMQDDKTGGVPIRTVKSFLSKIPSVVTGTDIVQWLMKNLSIEDPVEAIHLGSLIAAQGYIFPISDHVLTMKDDGTFYRFQAPYFWPSNCWEPENTDYAIYLCKRTMQNKARLELADYEAENLARLQRAFARKWEFIFMQAEAQVKIDRKKDKTERKILDSQERAFWDVHRPVPGCVNTTEMDIRKCRRLKNPQKVKKSVYGVTEESQAQSPVHVLSQPIRKTTKEDIRKQITFLNAQIDRHCLKMSKVAESLIAYTEQYVEYDPLITPAEPSNPWISDDVALWDIEMSKEPSQQRVKRWGFSFDEILKDQVGRDQFLRFLESEFSSENLRFWLAVQDLKKQPLQDVAKRVEEIWQEFLAPGAPSAINLDSHSYEITSQNVKDGGRYTFEDAQEHIYKLMKSDSYARFLRSNAYQDLLLAKKKGKSLAGKRLTGLMQSS
B2: RGS9-2 (protein, UniProt O75916 1-674)
chain: MTIRHQGQQYRPRMAFLQKIEALVKDMQNPETGVRMQNQRVLVTSVPHAMTGSDVLQWIVQRLWISSLEAQNLGNFIVRYGYIYPLQDPKNLILKPDGSLYRFQTPYFWPTQQWPAEDTDYAIYLAKRNIKKKGILEEYEKENYNFLNQKMNYKWDFVIMQAKEQYRAGKERNKADRYALDCQEKAYWLVHRCPPGMDNVLDYGLDRVTNPNEVKVNQKQTVVAVKKEIMYYQQALMRSTVKSSVSLGGIVKYSEQFSSNDAIMSGCLPSNPWITDDTQFWDLNAKLVEIPTKMRVERWAFNFSELIRDPKGRQSFQYFLKKEFSGENLGFWEACEDLKYGDQSKVKEKAEEIYKLFLAPGARRWINIDGKTMDITVKGLKHPHRYVLDAAQTHIYMLMKKDSYARYLKSPIYKDMLAKAIEPQETTKKSSTLPFMRRHLRSSPSPVILRQLEEEAKAREAANTVDITQPGQHMAPSPHLTVYTGTCMPPSPSSPFSSSCRSPRKPFASPSRFIRRPSTTICPSPIRVALESSSGLEQKGECSGSMAPRGPSVTESSEASLDTSWPRSRPRAPPKARMALSFSRFLRRGCLASPVFARLSPKCPAVSHGRVQPLGDVGQQLPRLKSKRVANFFQIKMDVPTGSGTCLMDSEDAGTGESGDRATEKEVICPWESL

Target: Gβ5 (GNB5, short form), N-terminally tagged (human) (UniProt O14775)
Test: co-purification; R7-RGS protein expressed with N-terminally HIS- or TS-tagged Gβ5 in Expi293 cells; duplex purified on HisTrap HP or StrepTrap HP (washes with ATP/MgCl2 and 4.5 M NaCl), SEC if needed

Binder | binding
B1 | binds
B2 | binds
